This is an account of results in PubChem BioAssay AID1487 (National Center for Advancing Translational Sciences (NCATS), 2009).

What is called AC50 is the midpoint of the concentration-response curve, whichever way the signal moves.

A short description of the assay: qHTS Assay for Modulators of Lamin A Splicing. The conditions noted are these: HeLa LMNA splicing GFP/RFP minigene ratio, 48 h. In short, it runs like this: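 S3 HeLa cells stably expressing lamin A-EGFP splicing minigene plus DsRed2, 600 cells/well, 48 h compound exposure at 37C. Laser-scanning cytometry; analysed as GFP (500-530 nm)/RFP (575-640 nm) total intensity ratio; 0.5% DMSO vehicle.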
(In general: qHTS replaces the single test concentration by a dilution series.)

Where [1] appears, read: measured here: RFP viability control channel.
Where [2] appears, read: measured here: GFP splicing reporter channel.

The structures appear in SMILES notation. “And” between values parts separate entries of the source, which are not always exact repeats. Equal values may be shown once. The list shows a part of the results. These are further read-outs of the screen, such as a control signal, another cell line or another target. No call is given for them. Most of these compounds were active or inconclusive in the main read-out, so they are no random draw. Potencies come from curve fits of mixed quality, noted in brackets.

As for `Cc1ccc(NC(=S)N(C)Cc2cn(C)c3ccccc23)cc1`, the half-maximal activity concentration (AC50) under setting [1] is 15.8 µM [rising, partial curve]. Take `Cc1ccc2c(c1)cc(CN(Cc1ccc3c(c1)OCO3)S(=O)(=O)c1ccccc1)c1nnnn12`: the AC50 under setting [2] is 12.6 µM [rising, partial curve, poor fit].

For the compound `CC1CCN(C(=S)c2cn(Cc3cccc(F)c3)c3ccccc23)CC1`, the half-maximal activity concentration (AC50) is 35.5 µM [rising, single point] under setting [2] and 31.6 µM [rising, single point] under setting [1]. Take `CCn1c(=O)cc(SCC(=O)NCCCN2CCN(c3ccccc3F)CC2)c2ccccc21`: the AC50 under setting [1] is 35.5 µM [rising, single point].

On to `Cc1ccccc1CNC(=O)c1ccc(Cn2c(SCc3ccccc3)nc3cccnc32)cc1`, for which the AC50 under setting [2] is 0.02 µM [falling, full curve, poor fit]. Regarding `O=S(=O)(c1ccccc1)c1cnc(-c2cccnc2)nc1-c1ccc(Cl)cc1Cl`, the AC50 runs as follows: under setting [2], 11.2 µM [falling, single point]; under setting [1], 17.8 µM [falling, partial curve]. On to `COc1ccccc1NC(=O)CSC(N)=O`, for which the AC50 under setting [1] is 11.2 µM [rising, single point]. As to `S=C(NCCSCc1ccc(Cl)cc1Cl)Nc1ccccc1`, the AC50 reads like this: under setting [2], 15.8 µM [falling, partial curve]; under setting [1], 22.4 µM [falling, partial curve]. Turning to `Cc1ccc(-c2csc(NNC(=O)c3ccccc3)n2)cc1`, the AC50 is 14.1 µM [rising, partial curve, poor fit] under setting [2] and 35.5 µM [rising, single point] under setting [1]. For the compound `O=C(CCCSc1nc(-c2ccco2)cc(C(F)(F)F)n1)NCc1cccs1`, under setting [2], the AC50 was 11.2 µM [rising, partial curve, poor fit]. For the compound `CCOC(=O)c1ccc(NC(=O)c2cc(S(=O)(=O)N3CCOCC3)ccc2O)cc1`, the concentration at half-maximal activity (AC50) under setting [1] was 12.6 µM [rising, single point]. `Cc1cccc(C)c1NC(=O)CN(C)S(=O)(=O)c1ccc2[nH]c3c(c2c1)CCCC3`: the AC50 under setting [2] is 11.2 µM [falling, partial curve, poor fit]. For the compound `CC(=O)Nc1ccccc1OCCOc1ccc(Br)cc1`, the AC50 under setting [1] was 8.91 µM [rising, partial curve, poor fit].

Take `O=C(Nc1nc(-c2ccc(S(=O)(=O)N3CCCCCC3)cc2)cs1)c1cccs1`: the AC50 is 3.55 µM [rising, partial curve, poor fit] under setting [2] and 3.16 µM [rising, single point] under setting [1].

As to `CC(C)COc1ccc(C(=O)N2CCC(c3nc4ccccc4s3)CC2)cc1`, the AC50 by setting is: under setting [2], 35.5 µM [falling, single point]; under setting [1], 25.1 µM [falling, partial curve, poor fit]. Regarding `COc1ccc(C)cc1S(=O)(=O)N1c2ccccc2CC1C` (stereo unspecified), the AC50 under setting [1] was 35.5 µM [rising, single point]. Still for that read-out and setting: with `Cc1ccc(-n2nnnc2SCc2nnc(-c3ccccc3Br)o2)cc1` the figure was 35.5 µM [rising, single point]; with `O=C(Cc1ccc(Br)cc1)Nc1ccc(S(=O)(=O)NCC2CCCO2)cc1` (stereo unspecified), 11.2 µM [falling, partial curve]. As to `CC1Cc2cc(C3(O)C(=O)c4ccccc4C3=O)ccc2N1` (stereo unspecified), the AC50 under setting [1] is 5.01 µM [rising, partial curve, poor fit]. Regarding `c1cc(C2CCN(Cc3nc(-c4ccc5c(c4)OCO5)no3)CC2)ccn1`, the half-maximal activity concentration (AC50) under setting [2] is 12.6 µM [falling, single point] and the AC50 under setting [1] was 20 µM [falling, partial curve, poor fit]. Take `Cc1ccc(-c2cc(C(=O)Nc3cccnc3)c3ccccc3n2)o1`: the half-maximal activity concentration (AC50) under setting [1] was 15.8 µM [rising, partial curve, poor fit].

Turning to `Cc1cccc(-c2c3c(=O)n(C)c(=O)n(C)c3c3cccnn23)c1`, the AC50 runs as follows: under setting [2], 22.4 µM [rising, partial curve, poor fit]; under setting [1], 3.98 µM [rising, partial curve, poor fit].

As to `CCc1nc2c(cnn2-c2ccc(Cl)cc2)c(=O)n1-c1ccc(OC)cc1`, the AC50 is 6.31 µM [rising, partial curve] under setting [2] and 8.91 µM [rising, partial curve] under setting [1]. For the compound `O=C(CSc1nnc(-c2ccccc2)c(-c2ccccc2)n1)NCc1ccco1`, the AC50 under setting [1] is 11.2 µM [rising, partial curve]. In the case of `CCOc1ccccc1N1CCN(C(=O)c2ccc3[nH]c4c(c3c2)CCCC4)CC1`, the concentration at half-maximal activity (AC50) is 2.24 µM [rising, partial curve] under setting [2] and 17.8 µM [rising, partial curve, poor fit] under setting [1]. Consider `O=C1c2cccc(O)c2C(=O)c2c(O)cccc21`, for which the AC50 is 39.8 nM [rising, partial curve, poor fit] and 5.62 µM [falling, partial curve] under setting [2]; 17.8 µM [rising, single point] under setting [1]. Turning to `O=C(Cc1ccc(Cl)cc1)Nc1ccc(-c2nnc(-c3ccco3)o2)cc1`, the AC50 runs as follows: under setting [2], 20 µM [rising, single point]; under setting [1], 15.8 µM [rising, single point]. `COc1ccc(OC)c(S(=O)(=O)Nc2cnc3ccccc3c2)c1`: under setting [1], the AC50 is 6.31 µM [rising, partial curve, poor fit]. Consider `O=C(N/N=C/c1ccccc1)c1ccc(CN2C(=O)c3cccc4cccc2c34)cc1`, for which the AC50 runs as follows: under setting [2], 28.2 µM [rising, single point]; under setting [1], 35.5 µM [rising, single point].

On to `C=CCn1c(SCC(=O)/C(C#N)=C(\C)N)nc2sc(CC)cc2c1=O`, for which the AC50 under setting [2] was 17.8 µM [rising, single point] and the AC50 under setting [1] was 35.5 µM [rising, single point]. On to `COc1ccc(Nc2nc(-c3ccccc3F)nc3ccccc23)cc1OC`, for which the AC50 is, setting by setting: under setting [2], 35.5 µM [falling, partial curve]; under setting [1], 0.0178 µM [falling, full curve, poor fit]. On to `CCCCOc1ccc(CSC2=NCCN2)cc1[N+](=O)[O-]`, for which the AC50 was 35.5 µM [rising, single point] under setting [2] and 35.5 µM [rising, single point] under setting [1]. Take `CCOC(=O)c1sc(NS(=O)(=O)c2ccc(F)cc2)nc1C`: the AC50 under setting [2] is 0.126 µM [falling, full curve, poor fit] and the half-maximal activity concentration (AC50) under setting [1] was 0.158 µM [falling, full curve, poor fit]. With `CC1=NN(c2ccccc2)C(=O)/C1=C\c1ccc(Oc2ccc([N+](=O)[O-])cc2[N+](=O)[O-])cc1`, the half-maximal activity concentration (AC50) under setting [1] is 7.94 µM [rising, partial curve]. For `Cc1noc(-c2ccc(-c3noc(-c4ccc(C(F)(F)F)cc4)n3)cc2)n1`, the AC50 reads like this: under setting [2], 0.02 µM [falling, full curve, poor fit]; under setting [1], 0.0501 µM [falling, full curve, poor fit]. On to `CC(=O)c1cccc(S(=O)(=O)NC2CC2)c1`, for which, under setting [1], the concentration at half-maximal activity (AC50) is 12.6 µM [rising, partial curve]. `O=C(CCCl)N(Cc1nc2ccccc2c(=O)[nH]1)Cc1cccs1`: the AC50 under setting [1] was 0.0112 µM [rising, full curve, poor fit]. Consider `COc1ccccc1N1CCN(C(=O)C(Sc2ccccc2)c2ccccc2)CC1` (stereo unspecified), for which the concentration at half-maximal activity (AC50) under setting [1] was 15.8 µM [rising, partial curve, poor fit]. `O=C(Nc1ccn(Cc2ccccc2F)n1)c1ccc(COc2cccc(Br)c2)cc1`: the AC50 under setting [1] was 25.1 µM [rising, single point]. Take `CCC(=O)N(Cc1ccco1)c1nc(C(=O)Nc2ccc(Cl)cc2)c(C)s1`: the AC50 under setting [1] was 15.8 µM [rising, partial curve]. Consider `Cn1ncc(C#N)c1/N=C/N(Cc1ccccc1)Cc1ccccc1`, for which the half-maximal activity concentration (AC50) under setting [1] was 15.8 µM [rising, single point].

As to `COc1ccc(C(=O)CCC(=O)Nc2cc(C)ccc2C)cc1`, the AC50 under setting [1] is 0.01 µM [falling, full curve, poor fit]. On the same count and under the same terms, the result for `Cc1ccc(NS(=O)(=O)c2cccs2)cc1S(=O)(=O)N1CCCCCC1` reads 0.0282 µM [falling, full curve, poor fit]. Regarding `COc1ccc(-c2nc3ccccc3s2)cc1NC(C)=O`, the AC50 under setting [1] is 0.158 µM [rising, full curve, poor fit]. As for `Cc1ccc(C(=O)NN2C(=O)/C(=C/c3cccn3C)SC2=S)cc1`, the AC50 is 12.6 µM [rising, single point] under setting [2] and 20 µM [rising, single point] under setting [1]. Consider `O=C(CC1SCCNC1=O)Nc1ccc(Cl)c(Cl)c1` (stereo unspecified), for which the AC50 under setting [1] was 20 µM [rising, single point]. For the compound `Oc1ccc(C2C(c3ccccc3)=NN=C(c3ccccc3F)N2O)c(O)c1` (stereo unspecified), the AC50 is 7.94 µM [rising, partial curve] under setting [2] and 10 µM [rising, partial curve] under setting [1]. For the compound `NCc1cccc(-n2cccn2)c1`, the half-maximal activity concentration (AC50) under setting [1] was 10 µM [falling, partial curve, poor fit].

As for `O=C(O)CCCCCCC1C(=O)NC(=O)N1CCC(O)C1CCCCC1` (stereo unspecified), the AC50 by setting is: under setting [2], 0.00447 µM [falling, full curve, poor fit]; under setting [1], 0.00631 µM [falling, full curve, poor fit]. On to `Brc1ccccc1-c1nnc(SCc2nc3ccccc3s2)o1`, for which the AC50 is 7.94 µM [rising, partial curve, poor fit] under setting [2] and 14.1 µM [rising, partial curve] under setting [1]. With `COc1ccc(CN2CCN(S(=O)(=O)c3ccc(NC(C)=O)cc3)CC2)c(OC)c1OC`, under setting [2], the AC50 was 0.0398 µM [rising, full curve]. On the same count and under the same terms, with `CCc1nc2ccccc2n1Cc1ccccc1F` the figure was 0.126 µM [falling, full curve, poor fit]; with `Cc1ccc(-c2cc(C(F)F)nc(NCC3CCCO3)n2)cc1` (stereo unspecified), 31.6 µM [rising, single point]. With `OCCN1CCN(Cc2cc(Cl)c3cccnc3c2O)CC1`, the AC50 under setting [1] was 22.4 µM [rising, single point].
